Among the data in US20150197564A1 are binding values, retold here.

Chains of the proteins cited; added tags and fusions are not shown. Lines headed by an entry give the natural chain unless they say otherwise; changes in a name come on top.
UniProt Q9Y5C1: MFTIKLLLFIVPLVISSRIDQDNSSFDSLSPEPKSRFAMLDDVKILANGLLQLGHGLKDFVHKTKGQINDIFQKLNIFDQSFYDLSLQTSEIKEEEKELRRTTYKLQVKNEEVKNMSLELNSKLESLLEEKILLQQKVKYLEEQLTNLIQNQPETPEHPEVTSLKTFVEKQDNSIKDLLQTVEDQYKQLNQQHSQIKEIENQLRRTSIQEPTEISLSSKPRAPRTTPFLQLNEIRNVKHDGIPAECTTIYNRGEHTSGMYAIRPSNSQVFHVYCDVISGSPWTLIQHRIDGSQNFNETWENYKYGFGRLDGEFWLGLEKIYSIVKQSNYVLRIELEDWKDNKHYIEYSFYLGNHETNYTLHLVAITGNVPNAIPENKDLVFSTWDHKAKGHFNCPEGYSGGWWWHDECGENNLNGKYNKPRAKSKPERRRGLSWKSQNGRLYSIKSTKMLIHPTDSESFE

No constants are given. Whether binding was seen depends on the method and setting. Some binding calls cover weakened binding; strength is not graded here.

Assay [1] addresses hANGPTL3(17-169)-mFc (human). Briefly: SPR Biacore, 25C, pH 7.4. On the technique in general: Surface plasmon resonance follows binding to a sensor surface in real time, without labels.
The target in assay [2] is hANGPTL3(17-460)-His (human) (UniProt Q9Y5C1). Briefly: SPR Biacore, 25C, pH 7.4.

B1: H4H1282P (antibody, IgG4, V domains shown)
VH: EVQLVQSGGGVVQPGRSLRLSCAASGFTFSNYGMHWVRQAPGKGLEWVAVVWYDGDNKYYADSVKGRFTISRDNSKNTLYLQMNSLRAEDTAVYYCARDIITSRPTLDYWGQGTLVTVSS
VL: DIQLTQSPSFLSASVGDRVTITCWASQGINSYLAWYQQKPGKAPKLLIYPASTLQSGVPSRFSGSGSGTEFTLTISSLQPVDFATYYCQQLNSYPLTFGGGTKVEIKR
For B1, the binding entry in assay [1] and in assay [2] was “binds” each time.
